No constants are given. Whether binding was seen depends on the method and setting. Some entries that bind do so weakly or less than the wild type.
Assays:
[1] = molecular target: cCLEC12A-His (cynomolgus monkey); experiment: SPR, purified murine mAb, Cyno CLEC12A-His
[2] = molecular target: cCLEC12A-His (cynomolgus monkey); experiment: SPR
[3] = molecular target: cCLEC12A-His (cynomolgus monkey); experiment: SPR, purified murine mAb

Measured: binding

B1: 15A10.G8 (antibody, V domains shown)
VH: EVQLQESGAELVRSGASIKLSCAASAFNIKDYFIHWVRQRPDQGLEWIGWIDPENDDTEYAPKFQDKATMTADTSSNTAYLQLSSLTSADTAVYYCNALWSRGGYFDYWGQGTTLTVSS
VL: EVLLTQSPAIIAASPGEKVTITCSARSSVSYMSWYQQKPGSSPKIWIYGISKLASGVPARFSGSGSGTYFSFTINNLEAEDVATYYCQQRSYYPFTFGSGTKLEIK
binds: [1] | [2] | [3]

Source: patent publication US20230220084A1
